Laboratory results published in article PMC3045441.
No constants are given. Whether binding was seen depends on the method and setting. Some results given as binding are weak or reduced against the parent protein; the word gives no strength. Tags and fused reporters may be left off the sequences shown.

Experiments:
Experiment in all cases: two-hybrid; yeast, Matchmaker Two-Hybrid System 3 (Clontech), GAL4 pGBKT7 bait and pGADT7 prey vectors, full-length mouse proteins; some interactions also examined with an oxygen-biosensor assay of yeast growth in selective medium
[1] = target: T1, MgcRacGAP, full-length mouse, yeast two-hybrid fusion (mouse) (UniProt Q9WVM1)
T1 sequence: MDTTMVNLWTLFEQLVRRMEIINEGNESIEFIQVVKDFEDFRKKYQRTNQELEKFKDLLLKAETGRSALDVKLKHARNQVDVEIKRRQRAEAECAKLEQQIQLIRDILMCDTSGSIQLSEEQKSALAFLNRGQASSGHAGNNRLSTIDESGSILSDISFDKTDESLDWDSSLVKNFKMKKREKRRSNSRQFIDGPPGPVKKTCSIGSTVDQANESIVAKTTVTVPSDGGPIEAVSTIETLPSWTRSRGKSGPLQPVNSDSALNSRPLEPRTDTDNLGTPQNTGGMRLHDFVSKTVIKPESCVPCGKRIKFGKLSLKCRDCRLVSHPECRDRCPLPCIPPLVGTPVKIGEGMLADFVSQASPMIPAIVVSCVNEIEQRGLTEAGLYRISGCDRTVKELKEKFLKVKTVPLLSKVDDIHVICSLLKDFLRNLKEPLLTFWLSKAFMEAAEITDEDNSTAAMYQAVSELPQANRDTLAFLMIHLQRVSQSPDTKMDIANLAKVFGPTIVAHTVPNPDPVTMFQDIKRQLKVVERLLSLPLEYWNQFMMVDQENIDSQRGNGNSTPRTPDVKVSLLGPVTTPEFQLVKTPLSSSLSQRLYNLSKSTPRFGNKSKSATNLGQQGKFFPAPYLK

[2] = target: T2, testis-expressed gene 14 (TEX14), full-length mouse, yeast two-hybrid fusion (mouse) (UniProt Q7M6U3)
T2 sequence: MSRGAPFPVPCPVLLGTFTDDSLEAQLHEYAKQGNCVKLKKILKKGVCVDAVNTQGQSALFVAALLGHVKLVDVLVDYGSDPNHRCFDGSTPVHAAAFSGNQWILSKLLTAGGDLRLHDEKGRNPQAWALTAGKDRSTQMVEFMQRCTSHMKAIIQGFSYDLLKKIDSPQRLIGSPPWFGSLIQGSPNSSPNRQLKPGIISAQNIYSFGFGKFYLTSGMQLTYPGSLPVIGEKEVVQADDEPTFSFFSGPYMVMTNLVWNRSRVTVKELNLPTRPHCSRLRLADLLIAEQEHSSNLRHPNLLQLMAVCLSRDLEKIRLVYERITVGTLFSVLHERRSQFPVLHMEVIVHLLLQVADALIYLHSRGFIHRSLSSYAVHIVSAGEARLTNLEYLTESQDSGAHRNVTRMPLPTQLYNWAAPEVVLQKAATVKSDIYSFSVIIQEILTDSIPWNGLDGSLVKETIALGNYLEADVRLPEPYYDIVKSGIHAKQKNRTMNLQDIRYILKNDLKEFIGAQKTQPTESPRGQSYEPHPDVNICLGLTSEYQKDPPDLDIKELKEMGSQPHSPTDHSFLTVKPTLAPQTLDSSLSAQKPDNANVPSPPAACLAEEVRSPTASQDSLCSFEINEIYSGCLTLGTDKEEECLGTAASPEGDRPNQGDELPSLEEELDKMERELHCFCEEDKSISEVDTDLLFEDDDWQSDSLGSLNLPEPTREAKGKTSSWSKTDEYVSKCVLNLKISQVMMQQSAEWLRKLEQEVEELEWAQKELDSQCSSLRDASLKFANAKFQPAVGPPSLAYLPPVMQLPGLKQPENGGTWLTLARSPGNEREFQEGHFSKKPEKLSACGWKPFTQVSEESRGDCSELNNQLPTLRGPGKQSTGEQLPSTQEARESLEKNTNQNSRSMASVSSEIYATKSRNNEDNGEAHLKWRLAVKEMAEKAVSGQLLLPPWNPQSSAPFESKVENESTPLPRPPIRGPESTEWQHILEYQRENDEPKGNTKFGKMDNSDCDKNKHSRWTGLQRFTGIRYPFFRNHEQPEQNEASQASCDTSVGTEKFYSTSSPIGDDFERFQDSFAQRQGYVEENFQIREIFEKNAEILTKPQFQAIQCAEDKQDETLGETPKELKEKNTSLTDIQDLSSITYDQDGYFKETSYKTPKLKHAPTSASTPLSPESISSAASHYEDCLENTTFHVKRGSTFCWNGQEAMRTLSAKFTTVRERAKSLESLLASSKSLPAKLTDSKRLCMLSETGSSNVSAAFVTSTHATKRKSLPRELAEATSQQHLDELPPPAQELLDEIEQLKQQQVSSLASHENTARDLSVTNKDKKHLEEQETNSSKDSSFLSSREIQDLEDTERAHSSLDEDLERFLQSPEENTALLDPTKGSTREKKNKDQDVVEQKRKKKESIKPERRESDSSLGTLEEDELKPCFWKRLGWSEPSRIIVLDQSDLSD

[3] = target: T3, mitotic kinesis-like protein 1 (MKLP1), full-length mouse, yeast two-hybrid fusion (mouse) (UniProt E9Q5G3)
T3 sequence: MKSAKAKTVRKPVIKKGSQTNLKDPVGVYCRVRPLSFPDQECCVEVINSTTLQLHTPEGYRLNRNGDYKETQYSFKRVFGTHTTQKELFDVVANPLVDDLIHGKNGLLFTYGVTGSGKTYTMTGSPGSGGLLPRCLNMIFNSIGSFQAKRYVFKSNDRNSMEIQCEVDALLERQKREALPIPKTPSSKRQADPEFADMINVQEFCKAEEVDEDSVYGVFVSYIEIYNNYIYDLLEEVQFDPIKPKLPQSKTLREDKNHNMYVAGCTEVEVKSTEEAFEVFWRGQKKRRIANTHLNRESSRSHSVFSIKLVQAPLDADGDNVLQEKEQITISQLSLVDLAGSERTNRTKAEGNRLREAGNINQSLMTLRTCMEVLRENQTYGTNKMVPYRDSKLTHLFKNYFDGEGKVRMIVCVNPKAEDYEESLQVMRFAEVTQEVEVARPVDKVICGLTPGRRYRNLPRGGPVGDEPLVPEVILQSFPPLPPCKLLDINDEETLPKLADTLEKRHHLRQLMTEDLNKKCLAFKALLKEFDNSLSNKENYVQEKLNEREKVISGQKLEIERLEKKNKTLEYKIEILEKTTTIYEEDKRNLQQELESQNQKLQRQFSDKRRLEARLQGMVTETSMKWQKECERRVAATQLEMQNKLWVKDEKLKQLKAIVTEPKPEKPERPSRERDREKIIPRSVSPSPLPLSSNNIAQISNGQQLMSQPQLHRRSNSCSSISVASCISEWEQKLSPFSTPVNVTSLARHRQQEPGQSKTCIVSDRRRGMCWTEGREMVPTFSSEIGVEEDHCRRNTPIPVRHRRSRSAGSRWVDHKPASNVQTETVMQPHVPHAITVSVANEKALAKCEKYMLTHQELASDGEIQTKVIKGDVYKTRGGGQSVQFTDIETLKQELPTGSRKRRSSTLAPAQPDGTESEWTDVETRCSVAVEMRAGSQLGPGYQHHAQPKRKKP

- binding [1]: no binding
- binding [2]: binds
- binding [3]: no binding
B1: RNA binding motif protein 44 (RBM44), full-length mouse, yeast two-hybrid fusion (protein, UniProt Q3V089 1-1013)
chain: MQATAALETDSDKNYPKNGGHFQNDKLYNPKKENMFFSNGCNGVILAFPDGKEDSLATEERASDKENSIVDQRDLSELSFSENQDSNRGNIFSQSSEFEDSNDYAFLNETYSIHYSESKLKDENLLHLYSGLHPEVHKRVEMIFDTLDNNSIGLGRSAEASGADCGDVQKSDVDEDSQQEYHSAELECISAHLAKTVSRSSLDVSELKTSSYDFKCGGNFEDNHGKLESGPSPSLESLNGFAQECSLQVSTSQSSDMLQEYHEPKYEKCKEQEVDLTYHKAFDGILQRSSSPLNHQKVPETQVYTKEVKSQTTESKDFYGNRIFQNKALQRPENATMFPQDRALETHLKANDAHQPSGPCALDDSVISLCGSSQYKSLPEPGFFSPVIPRVAVTDYQAEVEGSCLHHVQGSATNKACSLMKEVCLTSVPDAAACIAAVQQTLHVSSRVNASSSIVSASSITETKMVRQSQAEEWQSDKRSVACNTAWSCGQQCRDAQRAAPGSDSGRPLSTGCLKPSGNSLNENSLELRKVFDTTDRQKHCNRAFQLCEEKAVPSRCCQKTTERAIKAEMHLLDVCYQMCHRHCHHIYKLVMESRAGLNRNLQTDSAKKELGAALLSVLEDLKLRYMNLKGKVHKGIPLEELPPLSVESKLLSAFSDFVSRLMKDEACSLSGANSELDNQSLPDVDVSPGLLKTLSQMSFIPDSSQPEQGKSPMSDVCKNGDTDIGFNCLKLNDKECKTVQEASEDWFDATERLIGADFSETQDSTAECEEWQPRNPLELKNSELHGKGQGFLIHVGGLCPSVSEADLRSHFQKYQVSEISIYDSTNYRYASLAFAKNSNAKMAVKEMNGVKINGKSVTVRLVKIPGEYTPPPLSTTGNSTSMNHLEKNTNKDATSASSICRLPRAKSRQLESEQDSEFPPLDQGVKKNCNQMKSGQLLPETPFQFIPPNTLNLRSFTKIMKRLAELHPDISRDHIIEALQEVRINHKGFLNGLSINTIVKMASSFLRNSALK
